Experimental data published in PubChem BioAssay AID2677 (National Center for Advancing Translational Sciences (NCATS), 2010).
The inconclusive results got no clear call from the source; some entries with a clear call stand among them for comparison. Where the call is inconclusive, the potency comes from a doubtful curve fit. Active and inactive are the calls of the source. Calls follow the shape of the dose curve; as a rule, active = well fitted inhibition curve with a large enough effect; inconclusive = small, poorly fitted or top-dose-only effect; inactive = no such curve, though single readings can be large or run the other way.

Chains of the proteins cited; added tags and fusions are not shown. Residues count along the entry.
UniProt B2RXH2, 1-337 limits assumed: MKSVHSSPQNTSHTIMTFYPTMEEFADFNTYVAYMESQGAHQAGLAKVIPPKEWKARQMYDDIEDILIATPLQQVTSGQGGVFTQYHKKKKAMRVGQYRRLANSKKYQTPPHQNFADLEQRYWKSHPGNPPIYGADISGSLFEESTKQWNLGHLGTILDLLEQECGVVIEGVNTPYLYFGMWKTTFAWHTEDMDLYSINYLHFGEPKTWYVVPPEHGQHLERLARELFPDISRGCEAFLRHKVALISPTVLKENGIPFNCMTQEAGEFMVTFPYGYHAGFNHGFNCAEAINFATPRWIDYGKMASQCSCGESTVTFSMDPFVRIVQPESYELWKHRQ

target: Lysine-specific demethylase 4E (Homo sapiens) (UniProt B2RXH2); test: Confirmation qHTS Assay for Inhibitors of Human Jumonji Domain Containing 2E (JMJD2E); conditions: Recombinant JMJD2E, FDH-coupled NADH fluorescence (FDH is formaldehyde dehydrogenase); series mostly up to 56.8 µM; activity change, negative = inhibition: at the top concentration
Text: The fine interplay among methylation states of several lysine residues on the tails of histone proteins is a major determinant of the transcriptional state of the associated DNA coding regions and is commonly referred to as the histone code. Histone lysine demethylases catalyze the removal of methyl groups from methylated lysine sidechains on histones H3 and H4, thus antagonizing the reactions catalyzed by histone lysine methyltransferases. […] In search for novel inhibitors of JMJD2E demethylase, a member of the largest set of histone demethylases belonging to the Fe(II) and 2-oxoglutarate oxygenase (2OG) superfamily, we performed a quantitative high-throughput screen (Inglese 2006) by using an assay which utilizes a trimethylated peptide substrate corresponding to a fragment of histone H3 (sequence ARKme3STGGK) with detection of the formaldehyde co-product in real time by a formaldehyde dehydrogenase (FDH) coupled reaction. FDH catalyzes oxidation of formaldehyde to formic acid with the concomitant reduction of the non-fluorescent beta-nicotinamide adenine dinucleotide hydrate (NAD+) cofactor to the fluorescent NADH co-product. References: Inglese, J., Auld, D., Jadhav, A., Johnson, R., Simeonov, A., Yasgar, A., Zheng, W. and Austin, C. Proc Natl Acad Sci USA 2006, 103, 11473-11478. N. R. Rose, S. S. Ng, J. Mecinovic, B. M. Lienard, S. H. Bello, Z. Sun, M. A. McDonough, U. Oppermann and C. J. Schofield, J Med Chem, 2008, 51, 7053-7056. Sakurai, M., Rose, N., Schultz, L., Quinn, A., Jadhav, A., Ng, S., Oppermann, U., Schofield, C.J. and Simeonov, A. Mol BioSystems 2009, in press. S. Michael, D. Auld, C. Klumpp, A. Jadhav, W. Zheng, N. Thorne, C. Austin, J. Inglese and A. Simeonov, Assay Drug Dev Technol, 2008, 6, 637-657. Assay Provider: Structural Genomics Consortium [SGC] Screening Center PI: Austin, C.P. Screening Center: NIH Chemical Genomics Center [NCGC]
Reagents and Controls: Ferrous ammonium sulfate, (+)-sodium L-ascorbate, beta-nicotinamide adenine dinucleotide hydrate (NAD+), Tween-20, formaldehyde dehydrogenase from P. putida (FDH), and disodium 2-oxoglutarate were from Sigma (St. Louis, MO). Black solid-bottom 384-well or 1,536-well assay plates were from Greiner Bio-One (Monroe, NC). Enzyme was supplied by Prof. Udo Oppermann, SGC-Oxford. […] The trimethylated histone peptide substrate ARK(me3)STGGK was synthesized and HPLC-purified by the Tufts University Core Facility (Boston, MA). Substrate solution (Sakurai 2009) contained 50 uM ARK(me3)STGGK, 0.00025 U/uL FDH, 50 uM 2-oxoglutarate, 250 uM NAD+, 1 mM ascorbate, and 10 uM ferrous ammonium sulfate. Controls and plate map: Buffer (150 mM HEPES pH 7.5 containing 0.01% Tween-20) in columns 3 and 4 as negative control (no enzyme) and 100 nM JMJD2E final concentration in columns 1,2, and 5-48. Assay Steps: Enzyme and buffer solutions (3 uL) were dispensed into a 1,536-well Greiner black solid-bottom assay plate. The library compounds (23 nL) were transferred using a Kalypsys pintool equipped with 1,536-pin array. The plate was incubated at room temperature (15 min), and then a 1 uL aliquot of substrate solution was added to initiate the reaction. The plate was transferred to ViewLux imager where an initial reading using standard UV optics (Ex 340 nm, Em 450 nm) was obtained. The plate was then removed from the reader, incubated for 30 minutes at room temperature, and returned to the reader for a second fluorescence reading. A fully automated robotic screening system (Kalypsys Inc, San diego, CA) was used to perform the above steps as described previously (Michael 2008). Compound plates containing DMSO as a vehicle-only control were included at regular interval throughout the screen to monitor any systematic trend in the assay signal associated with reagent dispenser variation or decreases in enzyme specific activity. For activity calculations, percent values were computed as the difference in fluorescence intensity between last and first time points. […]

SMILES | Potency | activity change, negative = inhibition
Oc1ccc(CNCc2ccccc2F)c2cccnc12 | inconclusive: 16.2 µM [inhibitor, partial curve, poor fit] | –
CCOC(=O)c1ccc(NC(=O)CC2Sc3ncnn3C2=O)cc1 (stereo not given) | active: 2 µM | –
O=C(O)c1cc(Br)c(O)c2ncccc12 | inconclusive: 7.25 µM [inhibitor, partial curve, poor fit] | –
Oc1cc(NCc2ccc(F)cc2)cc2cccnc12 | inconclusive: 36.3 µM [inhibitor, partial curve, poor fit] | –
O=C(c1ccc(-c2cc(O)c3ncccc3c2)cc1)N1CCNCC1 | active: 15.8 µM | –
Oc1cc(Nc2ccccc2)cc2cccnc12 | inconclusive: 39.8 µM [inhibitor, single point] | –
NC(=O)c1ccnc2c(O)cccc12 | inconclusive: 3.24 µM [inhibitor, full curve, poor fit] | –
COC(=O)c1ccc(OC(C)=O)c2ncccc12 | active: 14.5 µM | –
Cc1cnc2c(O)cccc2c1 | inconclusive: 16.2 µM [inhibitor, partial curve, poor fit] | –
CCC(=O)NC(c1ccc(C)cc1)c1cc(Cl)c2cccnc2c1O (stereo not given) | – | inactive: 6.91%

3 structures already listed, arranged by molecular weight, high to low.
SMILES | Potency | activity change, negative = inhibition
CCC(=O)NC(c1ccc(C)cc1)c1cc(Cl)c2cccnc2c1O (stereo not given) | – | inactive: 6.91%
Oc1cc(NCc2ccc(F)cc2)cc2cccnc12 | inconclusive: 36.3 µM [inhibitor, partial curve, poor fit] | –
Oc1cc(Nc2ccccc2)cc2cccnc12 | inconclusive: 39.8 µM [inhibitor, single point] | –
